According to patent US4596873A, “1,4,5,6,7,8-Hexahydro-2-alkyl-4-aryl-5-oxo-1,7-naphthyridine-3-carboxyl ic acid aromatic esters and pharmaceutically acceptable acid addition salts thereof useful as antihypertensive agents” (American Home Products Corporation, priority 1985, dated 1986):
At least one compound was matched to its structure with a doubt left.

Key:
[1] = test system: arterial actin-myosin interactions; assay: inhibition of superprecipitation (antagonism of arterial actin-myosin interaction); type: biochemical; conditions: six minute time-point, mean±SEM
Procedure: (§1) The data reported herein was obtained at a six minute time-point rather than the 1.5, 5 and 12 minute time points indicated in the superprecipitation assay of the Silver et al. paper.
(§2) The following examples illustrate the preparation of a representative number of compounds of this invention. After each example, and Ca^+2 antagonist activity of the compound is presented in terms of percent relaxation of aortic tissue (P.R.) at 10^-5 M concentration. […] Inhibition of superprecipitation (Antag. of Actin-Myosin interaction) is expressed as percent inhibition (mean±standard error of the mean for at least 3 separate experiments) at a compound concentration. In the same manner, inhibition of myosin light chain phosphorylation (Antag. of MLCP) is expressed as a percent inhibition at a compound concentration. Similarly, the antihypertensive activity is reported in terms of millimeters mercury (mmHg) systolic blood pressure (B.P.) reduction at the stated time post 50 mg/kg oral dosing or other dosing as indicated.

[2] = test system: Ca^+2 -calmodulin dependent myosin light chain phosphorylation; assay: inhibition of Ca^+2-calmodulin dependent myosin light chain phosphorylation (MLCP); type: biochemical
Procedure: as §1, §2

SMILES | inhibition of superprecipitation (Antag. of Actin-Myosin) ([1]; 10 μM) [%] | inhibition of superprecipitation (Antag. of Actin-Myosin) ([1]; 25 μM) [%] | inhibition of superprecipitation (Antag. of Actin-Myosin) ([1]; 50 μM) [%] | inhibition of superprecipitation (Antag. of Actin-Myosin) ([1]; 100 μM) [%] | inhibition of myosin light chain phosphorylation (Antag. of MLCP) ([2]; 10 μM) [%] | inhibition of myosin light chain phosphorylation (Antag. of MLCP) ([2]; 25 μM) [%] | inhibition of myosin light chain phosphorylation (Antag. of MLCP) ([2]; 50 μM) [%] | inhibition of myosin light chain phosphorylation (Antag. of MLCP) ([2]; 100 μM) [%]
CC1=C(C(=O)OCCOc2ccccc2)C(c2cccc(Cl)c2C)C2=C(CNCC2=O)N1 (centres unmarked) [Example 17, 4-(3-Chloro-2-methylphenyl)-1,4,5,6,7,8-hexahydro-2-methyl-5-oxo-1,7-naphthyridine-3-carboxylic acid 2-phenoxyethyl ester] | 22 | 44±2 | 64±3 | 71±2 | 11 | 39±2 | 59±3 | 67±2
COC(COC(=O)C1=C(C)NC2=C(C(=O)CNC2)C1c1cccc(Cl)c1C)c1ccccc1 (centres unmarked) [Example 10, 4-(3-chloro-2-methylphenyl)-1,4,5,6,7,8-hexahydro-2-methyl-5-oxo-1,7-naphthyridine-3-carboxylic acid 2-methoxy-2-phenylethyl ester] | – | 45±3 | 68±2 | 76±2 | – | 35±5 | 62±1 | 75±3
